Data source: PubChem BioAssay AID686937 (Drosophila RNAi Screening Center, 2013)

Purpose: 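Genes in the fly needed for secretion of protein constitutively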 (primary screen)
Cell system: Drosophila S2 cells expressing secreted horseradish peroxidase
Reagents: long dsRNA against Drosophila genes
Duration: about 5.5 days (5 days dsRNA, then 12 h reporter induction)
Challenge: reporter expression induced after 5 days of dsRNA, read 12 h later; inducer not stated
Read-out: 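After 5 days of dsRNA and 12 h of reporter induction, medium peroxidase read by chemiluminescence and scored as per-plate z-score; higher values mean more reporter released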
Reading the numbers: z-score: higher = more reporter secreted into medium
The screen tested about 23,000 reagents; shown is an unselected part of those that have a named target and a result. 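Reduced-secretion tags in replicate 1 do not always agree with the z-scores; no criterion for assigning the tags was given.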 The numbers tell different reagents against one gene apart. Names joined by + are all predicted targets of the reagent. Further read-outs or replicates are left out here. Reagent sequences are not shown. Not stated in the record: the amount of reagent.

gene knocked down	reagent	z-score, replicate 1
a (arc)	1	0.3
a (arc)	2	0.54
boil (boilerman)	1	0.23
CG12817	1	0.36
nkd (naked cuticle)	1	0.63
LS2 (Large Subunit 2)	1	0.62
Ir41a (Ionotropic receptor 41a)	1	0.25
Ir41a (Ionotropic receptor 41a)	2	0.4
Blimp-1	1	0.06
CG9581	1	0.24
CG9581	2	-0.42
CG14687	1	0.36
CG6294 + CG6299	1	0.44
CG14569	1	0.41
CanA-14F (Calcineurin A at 14F)	1	-3.07
Pros28.2 (retired record)	1	0.25
mei-P26 (meiotic P26)	1	-2.16
CG18809	1	-0.15
CG45263	1	0.45
CG45263	2	0.43
CG45263	3	0
CG45263	4	-0.31
CG45263	5	0.39
Osi11 (Osiris 11)	1	0.42
CG43234 (retired record)	1	0.48
Nup188 (Nucleoporin 188kDa)	1	-0.13
msps (mini spindles)	1	0.36
MP1 (Melanization Protease 1)	1	0.38
Atac3 (Ada2a-containing complex component 3)	1	0.29
PGAP1 (Post-GPI attachment to proteins 1)	1	0.15
CR32745 (pseudo)	1	-0.2
CG13130 (retired record)	1	-1.3
CG17328	1	0.22
CG17328	2	1.4
CR31822 (pseudo)	1	0.29
Gnmt (Glycine N-methyltransferase)	1	0.16
PolD3 (DNA polymerase delta subunit 3)	1	-0.01
CG2202	1	-2.1
Cpr65Ea (Cuticular protein 65Ea)	1	0.35
CG17108	1	0.16
CG17108	2	-0.82
Atg5 (Autophagy-related 5)	1	0.56
CG14232	1	0.34
CG13605	1	0.15
mIF2 (mitochondrial translation initiation factor 2)	1	0.37
CG11249	1	0.26
Cad99C (Cadherin 99C)	1	0.19
Cad99C (Cadherin 99C)	2	0.53
CG11898	1	-0.04
CG14500	1	0.21
RpS3A (Ribosomal protein S3A)	1	-2.16
Unc-115b + p24-2	1	-0.34
CG2147	1	0.47
ND-30 (NADH dehydrogenase (ubiquinone) 30 kDa subunit)	1	-0.34
CG42819	1	0.53
Cubn2 (Cubilin 2)	1	0.08
Cubn2 (Cubilin 2)	2	0.33

Laid out differently: results already given
{"gene knocked down": "Cad99C (Cadherin 99C)", "reagent": 2, "z-score, replicate 1": 0.53}
{"gene knocked down": "CG11898", "reagent": 1, "z-score, replicate 1": -0.04}
{"gene knocked down": "CG14500", "reagent": 1, "z-score, replicate 1": 0.21}
{"gene knocked down": "RpS3A (Ribosomal protein S3A)", "reagent": 1, "z-score, replicate 1": -2.16}
{"gene knocked down": "Unc-115b + p24-2", "reagent": 1, "z-score, replicate 1": -0.34}
{"gene knocked down": "CG2147", "reagent": 1, "z-score, replicate 1": 0.47}
{"gene knocked down": "ND-30 (NADH dehydrogenase (ubiquinone) 30 kDa subunit)", "reagent": 1, "z-score, replicate 1": -0.34}
{"gene knocked down": "CG42819", "reagent": 1, "z-score, replicate 1": 0.53}
